Drawing on PMC12175362, this text covers binding for three substances.

By UniProt entry, the sequences of proteins in these tests, tags left out. Where a name states a change or a piece, a line headed by the entry shows the natural chain unless it says otherwise.
UniProt P06733: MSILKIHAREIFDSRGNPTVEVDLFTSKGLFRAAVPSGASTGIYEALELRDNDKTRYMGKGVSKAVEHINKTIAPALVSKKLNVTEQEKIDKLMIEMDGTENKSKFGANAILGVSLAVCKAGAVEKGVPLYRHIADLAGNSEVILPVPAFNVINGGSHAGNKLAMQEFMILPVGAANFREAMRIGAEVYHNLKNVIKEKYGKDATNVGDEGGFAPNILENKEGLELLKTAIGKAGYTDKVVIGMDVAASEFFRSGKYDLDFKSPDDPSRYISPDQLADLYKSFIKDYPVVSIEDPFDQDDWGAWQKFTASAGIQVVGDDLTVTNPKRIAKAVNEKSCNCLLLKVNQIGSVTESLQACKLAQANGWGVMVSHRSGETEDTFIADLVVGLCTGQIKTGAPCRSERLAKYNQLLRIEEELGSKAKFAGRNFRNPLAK
UniProt Q969H0: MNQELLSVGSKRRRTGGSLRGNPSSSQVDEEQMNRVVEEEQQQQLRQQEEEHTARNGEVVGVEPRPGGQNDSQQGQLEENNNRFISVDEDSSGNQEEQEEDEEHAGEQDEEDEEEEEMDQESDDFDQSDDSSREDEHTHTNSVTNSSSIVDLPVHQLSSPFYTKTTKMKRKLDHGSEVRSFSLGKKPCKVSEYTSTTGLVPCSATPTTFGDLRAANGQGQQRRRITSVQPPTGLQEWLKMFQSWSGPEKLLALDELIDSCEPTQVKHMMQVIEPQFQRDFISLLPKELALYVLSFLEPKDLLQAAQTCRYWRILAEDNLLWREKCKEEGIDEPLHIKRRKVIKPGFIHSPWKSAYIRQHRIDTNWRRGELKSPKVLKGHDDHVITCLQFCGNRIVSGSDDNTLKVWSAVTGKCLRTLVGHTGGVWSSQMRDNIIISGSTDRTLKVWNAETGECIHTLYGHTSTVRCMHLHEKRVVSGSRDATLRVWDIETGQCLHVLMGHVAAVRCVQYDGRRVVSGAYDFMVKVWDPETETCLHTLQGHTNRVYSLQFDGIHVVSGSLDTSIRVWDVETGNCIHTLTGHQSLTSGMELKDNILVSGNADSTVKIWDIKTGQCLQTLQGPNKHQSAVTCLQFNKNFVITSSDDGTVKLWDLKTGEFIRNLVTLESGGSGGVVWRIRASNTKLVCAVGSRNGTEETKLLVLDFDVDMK

Assay [1] has as its target T1, Doublecortin domain containing 2 (DCDC2) in HCCC-9810 and HuCC-T1 cells (human) (UniProt Q9UHG0).
T1 sequence: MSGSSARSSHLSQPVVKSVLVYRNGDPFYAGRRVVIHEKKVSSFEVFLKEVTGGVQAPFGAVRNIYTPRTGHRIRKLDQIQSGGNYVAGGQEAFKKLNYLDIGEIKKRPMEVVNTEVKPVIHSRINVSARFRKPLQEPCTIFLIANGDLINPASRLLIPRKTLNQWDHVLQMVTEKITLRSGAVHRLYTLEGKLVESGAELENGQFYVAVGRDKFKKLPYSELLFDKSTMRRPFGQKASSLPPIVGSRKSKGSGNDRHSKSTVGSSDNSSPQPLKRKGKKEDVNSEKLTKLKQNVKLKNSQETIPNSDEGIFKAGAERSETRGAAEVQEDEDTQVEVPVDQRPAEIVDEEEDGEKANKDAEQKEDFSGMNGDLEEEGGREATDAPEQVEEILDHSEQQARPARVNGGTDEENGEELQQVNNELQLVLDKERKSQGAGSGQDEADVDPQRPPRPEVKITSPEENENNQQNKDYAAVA
In words: co-IP; lysates of HCCC-9810 and HuCC-T1 cells; antibody overnight at 4 °C, protein A/G agarose, western blot.

The target in assay [2] is Enolase 1 (ENO1) in HCCC-9810 and HuCC-T1 cells (human (endogenous in HCCC-9810 and HuCC-T1)) (UniProt P06733). In words: co-IP; ICC cells with or without DCDC2 overexpression; co-IP and western blot for ENO1, FBXW7 and NEDD4L. On the technique in general: In western blotting, separated proteins are transferred to a membrane and probed.
In another assay the target is T2, Flag-DCDC2 (human) (UniProt Q9UHG0).
T2 sequence: T1 sequence
In words: co-IP; HEK-293T cells co-transfected with Myc-ENO1 constructs and Flag-DCDC2; immunoprecipitated with anti-Flag antibody.

No constants are given. Whether binding was seen depends on the method and setting. Binding seen in cells or lysates may run through a third protein. Some binding calls cover weakened binding; strength is not graded here. For part of these data: Sequences can lack the tags named with a protein.

“Enolase 1 (ENO1) in HCCC-9810 and HuCC-T1 cells (from UniProt P06733 1-434)”: the binding entry in assay [1] was “binds”.
Consider FBXW7 (from UniProt Q969H0 1-707), for which the binding result in assay [2] is listed as “binds”.
Take “Myc-ENO1 140–434 (from UniProt P06733 140-434) (domain or fragment)”: in the assay with Flag-DCDC2 (human), the binding entry is given as “binds”.
